Laboratory results published in patent US6458929 (LICENTIA, dated 2002).
These are yes or no findings as the source states them, for the method shown. Some results given as binding are weak or reduced against the parent protein; the word gives no strength. One block for each molecule: values may come before it.

Amino acid sequences for entries named in this document (tags omitted). Residues count along the entry.
UniProt P05094, residues 267-749: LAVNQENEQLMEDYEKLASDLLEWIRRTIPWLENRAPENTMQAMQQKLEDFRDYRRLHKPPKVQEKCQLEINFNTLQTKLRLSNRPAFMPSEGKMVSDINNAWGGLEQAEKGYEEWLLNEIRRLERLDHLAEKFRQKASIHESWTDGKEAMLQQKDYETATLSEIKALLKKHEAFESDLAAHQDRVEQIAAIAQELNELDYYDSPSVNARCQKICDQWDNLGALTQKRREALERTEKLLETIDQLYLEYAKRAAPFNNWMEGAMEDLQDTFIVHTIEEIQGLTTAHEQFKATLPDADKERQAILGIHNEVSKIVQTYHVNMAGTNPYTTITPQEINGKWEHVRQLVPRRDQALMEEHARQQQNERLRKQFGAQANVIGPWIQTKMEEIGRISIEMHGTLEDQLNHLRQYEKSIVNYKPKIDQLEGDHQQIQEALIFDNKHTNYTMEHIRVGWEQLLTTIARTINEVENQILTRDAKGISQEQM

Assays:
[1] = molecular target: spectrin-like repeats R1-R4 (residues 267-749) of chicken smooth muscle α-actinin (chicken) (UniProt P05094); assay: yeast two-hybrid; reaction weaker than myotilin/α-actinin and myotilin/myotilin
[2] = molecular target: spectrin-like repeats R1-R4 (residues 267-749) of chicken smooth muscle α-actinin (chicken) (UniProt P05094); assay: yeast two-hybrid
[3] = molecular target: T1, myotilin (full length, 498 residues) (human), Q9UBF9; assay: yeast two-hybrid; conditions: remark: other sources report otherwise
T1 chain: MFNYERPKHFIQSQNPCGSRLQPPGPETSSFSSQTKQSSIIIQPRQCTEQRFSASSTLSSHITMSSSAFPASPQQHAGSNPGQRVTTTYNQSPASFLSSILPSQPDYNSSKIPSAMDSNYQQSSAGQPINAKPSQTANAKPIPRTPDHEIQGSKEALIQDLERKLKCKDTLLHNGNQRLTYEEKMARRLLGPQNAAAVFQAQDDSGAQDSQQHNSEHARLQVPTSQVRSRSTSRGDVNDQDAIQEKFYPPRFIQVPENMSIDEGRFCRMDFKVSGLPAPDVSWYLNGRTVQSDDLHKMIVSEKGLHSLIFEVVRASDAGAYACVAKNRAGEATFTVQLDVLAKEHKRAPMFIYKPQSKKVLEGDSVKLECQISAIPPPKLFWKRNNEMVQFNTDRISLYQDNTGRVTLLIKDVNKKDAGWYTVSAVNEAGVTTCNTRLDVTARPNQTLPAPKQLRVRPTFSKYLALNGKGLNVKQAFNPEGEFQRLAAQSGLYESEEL

binding [1]: binds
Molecule: spectrin-like repeats R1-R4 (residues 267-749) of chicken smooth muscle α-actinin (from UniProt P05094 267-749)

binding [2]: binds
B1: myotilin (full length, 498 residues) (protein)
chain: MFNYERPKHFIQSQNPCGSRLQPPGPETSSFSSQTKQSSIIIQPRQCTEQRFSASSTLSSHITMSSSAFPASPQQHAGSNPGQRVTTTYNQSPASFLSSILPSQPDYNSSKIPSAMDSNYQQSSAGQPINAKPSQTANAKPIPRTPDHEIQGSKEALIQDLERKLKCKDTLLHNGNQRLTYEEKMARRLLGPQNAAAVFQAQDDSGAQDSQQHNSEHARLQVPTSQVRSRSTSRGDVNDQDAIQEKFYPPRFIQVPENMSIDEGRFCRMDFKVSGLPAPDVSWYLNGRTVQSDDLHKMIVSEKGLHSLIFEVVRASDAGAYACVAKNRAGEATFTVQLDVLAKEHKRAPMFIYKPQSKKVLEGDSVKLECQISAIPPPKLFWKRNNEMVQFNTDRISLYQDNTGRVTLLIKDVNKKDAGWYTVSAVNEAGVTTCNTRLDVTARPNQTLPAPKQLRVRPTFSKYLALNGKGLNVKQAFNPEGEFQRLAAQSGLYESEEL

binding [3]: binds
B2: myotilin (full length, 498 residues), Q9UBF9 1-498 (protein)
chain: MFNYERPKHFIQSQNPCGSRLQPPGPETSSFSSQTKQSSIIIQPRQCTEQRFSASSTLSSHITMSSSAFPASPQQHAGSNPGQRVTTTYNQSPASFLSSILPSQPDYNSSKIPSAMDSNYQQSSAGQPINAKPSQTANAKPIPRTPDHEIQGSKEALIQDLERKLKCKDTLLHNGNQRLTYEEKMARRLLGPQNAAAVFQAQDDSGAQDSQQHNSEHARLQVPTSQVRSRSTSRGDVNDQDAIQEKFYPPRFIQVPENMSIDEGRFCRMDFKVSGLPAPDVSWYLNGRTVQSDDLHKMIVSEKGLHSLIFEVVRASDAGAYACVAKNRAGEATFTVQLDVLAKEHKRAPMFIYKPQSKKVLEGDSVKLECQISAIPPPKLFWKRNNEMVQFNTDRISLYQDNTGRVTLLIKDVNKKDAGWYTVSAVNEAGVTTCNTRLDVTARPNQTLPAPKQLRVRPTFSKYLALNGKGLNVKQAFNPEGEFQRLAAQSGLYESEEL
